Literature values in paper PMC9310824, “Alendronate modified mPEG-PLGA nano-micelle drug delivery system loaded with astragaloside has anti-osteoporotic effect in rats” (Drug Delivery, 2022).

Conditions: ref Katsumi et al., 2015; cited from earlier work

## NCCCC(O)(P(=O)(O)O)P(=O)(O)O [Al, Alendronate]
  bone uptake rate: 50%–60%
